# From patent US20210324009A1, “ANTI-BACTERIAL CALCIUM-DEPENDENT ANTIBIOTIC (CDA) ANALOGS AND METHODS OF TREATING BACTERIAL INFECTIONS” (THE UNIVERSITY OF HONG KONG, priority 2020, published 2021)
# Some of these results come from one statement about several compounds together. Numbered stars: 1 amine (or outer) side, 2 acyl side, 3 side chain; on linkers, the order of the positions; unused ones are H or OH. Bridge positions count the residues as written; N and C are the ends. Square brackets hold non-standard residues; d marks the D form. Peptide text beside a SMILES is read from it. * marks the point of attachment. Tetradecenoyl(2E,13-Me) = CC(C)CCCCCCCCC/C=C/C(=O)*; X2 = O=C(/C(=C/c1c[nH]c2ccccc12)N[*:1])[*:2]; dAsn(3S-OH) = NC(=O)[C@@H](O)[C@@H](N)C(=O)O; dAsn(3R-OH) = NC(=O)[C@H](O)[C@@H](N)C(=O)O; X3 = CC(C)CCCCCCCC[C@H]1O[C@@H]1C(=O)*; dHpg = N[C@@H](C(=O)O)c1ccc(O)cc1; X1 = CCCCCCC[C@H]1O[C@@H]1C(=O)*; X7 = CC(C)CCCCCCCCCC/C=C/C(=O)*; X5 = CC(C)CCCCCCCC/C=C/C(=O)*; X4 = CC(C)CCCCCCC/C=C/C(=O)*; X8 = CC(C)CCCCCC/C=C/C(=O)*; X6 = CCCCCCC/C=C/C(=O)*
# Test system: MRSA, SA, Streptococcus faecalis and Enterococcus strains
# Test: Antibacterial activity compared with CDA3a (summary of Table 1)
# Type: cell-based
# Conditions: ratio of MICs relative to CDA3a
row,SMILES,times higher activities than CDA3a
1,"CC(C)CCCCCCCCC/C=C/C(=O)N[C@@H](CO)C(=O)N[C@@H]1C(=O)N[C@H](Cc2c[nH]c3ccccc23)C(=O)N[C@@H](CC(=O)O)C(=O)N[C@@H](CC(=O)O)C(=O)N[C@H](c2ccc(O)cc2)C(=O)N[C@@H](CC(=O)O)C(=O)NCC(=O)N[C@H]([C@H](O)C(N)=O)C(=O)N[C@H](CCC(=O)O)C(=O)N/C(=C\c2c[nH]c3ccccc23)C(=O)O[C@@H]1C [Δ^2,3C15CDA3a, Δ^2,3-C15-CDA3a] ({Tetradecenoyl(2E,13-Me)}-ST[dW]DD[dHpg]DG[dAsn(3S-OH)][dE][X2]; ester 2-C)",64-128 times
2,"CC(C)CCCCCCCC/C=C/C(=O)N[C@@H](CO)C(=O)N[C@@H]1C(=O)N[C@H](Cc2c[nH]c3ccccc23)C(=O)N[C@@H](CC(=O)O)C(=O)N[C@@H](CC(=O)O)C(=O)N[C@H](c2ccc(O)cc2)C(=O)N[C@@H](CC(=O)O)C(=O)NCC(=O)N[C@H]([C@H](O)C(N)=O)C(=O)N[C@H](CCC(=O)O)C(=O)N/C(=C\c2c[nH]c3ccccc23)C(=O)O[C@@H]1C [Δ^2,3C14CDA3a, Δ^2,3-C14-CDA3a] (X5-ST[dW]DD[dHpg]DG[dAsn(3S-OH)][dE][X2]; ester 2-C)",64-128 times
3,"CC(C)CCCCCCCC[C@H]1O[C@@H]1C(=O)N[C@@H](CO)C(=O)N[C@@H]1C(=O)N[C@H](Cc2c[nH]c3ccccc23)C(=O)N[C@@H](CC(=O)O)C(=O)N[C@@H](CC(=O)O)C(=O)N[C@H](c2ccc(O)cc2)C(=O)N[C@@H](CC(=O)O)C(=O)NCC(=O)N[C@H]([C@H](O)C(N)=O)C(=O)N[C@H](CCC(=O)O)C(=O)N/C(=C\c2c[nH]c3ccccc23)C(=O)O[C@@H]1C [epoxyC14-CDA3b, Epoxy-C14-CDA3b] (X3-ST[dW]DD[dHpg]DG[dAsn(3S-OH)][dE][X2]; ester 2-C)",64-256 times
4,"CC(C)CCCCCC/C=C/C(=O)N[C@@H](CO)C(=O)N[C@@H]1C(=O)N[C@H](Cc2c[nH]c3ccccc23)C(=O)N[C@@H](CC(=O)O)C(=O)N[C@@H](CC(=O)O)C(=O)N[C@H](c2ccc(O)cc2)C(=O)N[C@@H](CC(=O)O)C(=O)NCC(=O)N[C@H]([C@H](O)C(N)=O)C(=O)N[C@H](CCC(=O)O)C(=O)N/C(=C\c2c[nH]c3ccccc23)C(=O)O[C@@H]1C [Δ^2,3C12CDA3a, Δ^2,3-C12-CDA3a] (X8-ST[dW]DD[dHpg]DG[dAsn(3S-OH)][dE][X2]; ester 2-C)",64-128 times
5,"CC(C)CCCCCCCC[C@H]1O[C@@H]1C(=O)N[C@@H](CO)C(=O)N[C@@H]1C(=O)N[C@H](Cc2c[nH]c3ccccc23)C(=O)N[C@@H](CC(=O)O)C(=O)N[C@@H](CC(=O)O)C(=O)N[C@H](c2ccc(O)cc2)C(=O)N[C@@H](CC(=O)O)C(=O)NCC(=O)N[C@H]([C@H](O)C(N)=O)C(=O)N[C@H](CCC(=O)O)C(=O)N/C(=C\c2c[nH]c3ccccc23)C(=O)O[C@@H]1C [epoxyC14CDA3a, EpoxyC14-CDA3a] (X3-ST[dW]DD[dHpg]DG[dAsn(3S-OH)][dE][X2]; ester 2-C)",64-256 times
6,"CC(C)CCCCCCCC[C@H]1O[C@@H]1C(=O)N[C@@H](CO)C(=O)N[C@@H]1C(=O)N[C@H](Cc2c[nH]c3ccccc23)C(=O)N[C@@H](CC(=O)O)C(=O)N[C@@H](CC(=O)O)C(=O)N[C@H](c2ccc(O)cc2)C(=O)N[C@@H](CC(=O)O)C(=O)NCC(=O)N[C@H](CC(N)=O)C(=O)N[C@H](CCC(=O)O)C(=O)N/C(=C\c2c[nH]c3ccccc23)C(=O)O[C@@H]1C [epoxyC14-CDA4a, Epoxy-C14-CDA4a] (X3-ST[dW]DD[dHpg]DG[dN][dE][X2]; ester 2-C)",64-256 times
7,"CC(C)CCCCCCC/C=C/C(=O)N[C@@H](CO)C(=O)N[C@@H]1C(=O)N[C@H](Cc2c[nH]c3ccccc23)C(=O)N[C@@H](CC(=O)O)C(=O)N[C@@H](CC(=O)O)C(=O)N[C@H](c2ccc(O)cc2)C(=O)N[C@@H](CC(=O)O)C(=O)NCC(=O)N[C@H]([C@H](O)C(N)=O)C(=O)N[C@H](CCC(=O)O)C(=O)N/C(=C\c2c[nH]c3ccccc23)C(=O)O[C@@H]1C [Δ^2,3C13CDA3a, Δ^2,3-C13-CDA3a] (X4-ST[dW]DD[dHpg]DG[dAsn(3S-OH)][dE][X2]; ester 2-C)",64-128 times
8,"CCCCCCC/C=C/C(=O)N[C@@H](CO)C(=O)N[C@@H]1C(=O)N[C@H](Cc2c[nH]c3ccccc23)C(=O)N[C@@H](CC(=O)O)C(=O)N[C@@H](CC(=O)O)C(=O)N[C@H](c2ccc(O)cc2)C(=O)N[C@@H](CC(=O)O)C(=O)NCC(=O)N[C@H]([C@H](O)C(N)=O)C(=O)N[C@H](CCC(=O)O)C(=O)N/C(=C\c2c[nH]c3ccccc23)C(=O)O[C@@H]1C [Δ^2,3C10CDA3a, Δ^2,3-C10-CDA3a] (X6-ST[dW]DD[dHpg]DG[dAsn(3S-OH)][dE][X2]; ester 2-C)",64-128 times
9,"CCCCCCC[C@H]1O[C@@H]1C(=O)N[C@@H](CO)C(=O)N[C@@H]1C(=O)N[C@H](Cc2c[nH]c3ccccc23)C(=O)N[C@@H](CC(=O)O)C(=O)N[C@@H](CC(=O)O)C(=O)N[C@H](c2ccc(O)cc2)C(=O)N[C@@H](CC(=O)O)C(=O)NCC(=O)N[C@H]([C@H](O)C(N)=O)C(=O)N[C@H](CCC(=O)O)C(=O)N/C(=C\c2c[nH]c3ccccc23)C(=O)O[C@@H]1C [epoxyC10CDA3a, EpoxyC10-CDA3a] (X1-ST[dW]DD[dHpg]DG[dAsn(3S-OH)][dE][X2]; ester 2-C)",64-256 times
10,"CC(C)CCCCCCCC[C@H]1O[C@@H]1C(=O)N[C@@H](CO)C(=O)N[C@@H]1C(=O)N[C@H](Cc2c[nH]c3ccccc23)C(=O)N[C@@H](CC(=O)O)C(=O)N[C@@H](CC(=O)O)C(=O)N[C@H](c2ccc(O)cc2)C(=O)N[C@@H](CC(=O)O)C(=O)NCC(=O)N[C@H]([C@@H](O)C(N)=O)C(=O)N[C@H](CCC(=O)O)C(=O)N/C(=C\c2c[nH]c3ccccc23)C(=O)O[C@@H]1C [epoxyC14-epi-HOAsn-CDA3a, Epoxy-C14-Epi-D-HOAsn-CDA3a] (X3-ST[dW]DD[dHpg]DG[dAsn(3R-OH)][dE][X2]; ester 2-C)",64-256 times
11,"CC(C)CCCCCCCCCC/C=C/C(=O)N[C@@H](CO)C(=O)N[C@@H]1C(=O)N[C@H](Cc2c[nH]c3ccccc23)C(=O)N[C@@H](CC(=O)O)C(=O)N[C@@H](CC(=O)O)C(=O)N[C@H](c2ccc(O)cc2)C(=O)N[C@@H](CC(=O)O)C(=O)NCC(=O)N[C@H]([C@H](O)C(N)=O)C(=O)N[C@H](CCC(=O)O)C(=O)N/C(=C\c2c[nH]c3ccccc23)C(=O)O[C@@H]1C [Δ^2,3C16CDA3a, Δ^2,3-C16-CDA3a] (X7-ST[dW]DD[dHpg]DG[dAsn(3S-OH)][dE][X2]; ester 2-C)",64-128 times
